# Reference: PubChem BioAssay AID1508600 (Functional Genomics Laboratory (NCATS/FGL), 2020)
# The campaign covered roughly 53,000 sequences. About 3,700 (7%) were called active.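 The calls were made as follows: active = gene knockdowns whose robust z-score for IL-1 alpha signal is at least 2 or at most -2, so actives lie on both sides; inactive = the rest.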 The list shows a part of the results.
# Experiment: Components of the Cytosolic LPS Sensing Pathway: Gene Identification via Genome-wide siRNA Screen;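 also: robust z of the log signal after scaling to non-targeting control siRNA wells of the plate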
# Conditions: RAW264.7 macrophages, IL-1a HTRF, actives lie on both sides, screened at 100 nM (by protocol), cells primed 5 h with Pam3CSK4 first
# Summary of the method: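 Supernatant IL-1a by HTRF from RAW264.7 cells primed with Pam3CSK4 (5 hours) and transfected with LipidA (24 hour) after 48h siRNA knockdown at 100 nM; cell viability checked with CellTiter-Glo.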
row,Sequence,z-score
1,CACCGUAAUAAUCACACUATT against Zfp667,inactive: -0.854
2,GCAACAUGGCCCUUACCAUTT against Plcb2,inactive: 0.721
3,GGUGUUUACAGUUGAGAGUTT against Prmt7,inactive: 0.678
4,GGUCUUCCGGGAGAUCAUUTT against Inmt,inactive: 0.471
5,GGUUAUAGAGCGAGCAGCUTT against Mak16,inactive: -1.11
6,GCGGGCAAUGCCUUAAAAGTT against Parl,inactive: 0.257
7,GGCACUUCUUAAUCCCACATT against Nfe2,active: -2.41
8,GGGUGUAUUGAGAAUCAACTT against Dis3l2,inactive: 0.489
9,GCUGAUGUCUGAGGGUGUATT against Tex22,inactive: 0.58
10,CCCUAAAUGCUUCGUAUGCTT against Ablim3,inactive: -1.2
11,CCCGGGUCUUUGAUAUCUUTT against Evi5l,active: 2.03
12,GGGAAGUUAAUUGAGAUCCTT against Nomo1,inactive: 0.393
13,GGAUGCUCUGGUUACAUUATT against Mreg,inactive: 0.463
14,GGAGACAUUCCUGAAAGCUTT against Ankrd2,active: -2.09
15,GCCUAUACUGAUUUAUGAUTT against Tomm7,inactive: -1.73
16,AGUUUAGGUCUACAGAUACTT against Ggnbp1,inactive: 0.254
17,GGAUUCUUGGAGCUCAUUATT against Stag3,active: -2.46
18,GGAAAUGACCAGUCUGUUUTT against Zmym1,inactive: -0.47
19,GGAGAGGCAUCUUUUCCUATT against Arhgap20,inactive: -0.338
20,GGAAGUUUAAAGUCUAGAATT against Adcy7,inactive: 0.477
21,GGAAUCUAGACCUAACUUCTT against Zfp444,inactive: -0.693
22,GGCAAUAAAGUGUAUUGGCTT against Cd3e,inactive: -0.644
23,GGCCUACGUGCUAAACAUCTT against Atp1b1,inactive: 1.77

row,Sequence,z-score
1,GGACUUUUCUGAUGAAACATT against Map3k4,inactive: -0.0165
2,GGCAUAUGAUGAUAAGUAATT against P2ry14,inactive: 0.691
3,CGAUGAUCCUUACCUCAUATT against Ptcd3,inactive: 0.978
4,GGUGGUGUCGGAUUUGAUATT against Rtcb,inactive: -0.109
5,CUGAUCCUUCAAUUAACAUTT against Olfr202,inactive: 0.0318
6,GGUCAUUAAGGACUCGAAGTT against Gfap,inactive: 0.953
7,GGUGUGGUGGGUUUCUCAUTT against Mcpt2,inactive: -0.126
8,GGUAUCCUCUCUUGUCUUGTT against Clec9a,inactive: -0.0393
9,GGACUUAUGAGCAAAUAAATT against Rprd1a,inactive: 0.494
10,GCUUCAGAACACGACGACCTT against Selenom,inactive: 1.88
11,CCCUGUGAUCACUACAUGUTT against Traf7,inactive: -0.389
12,GGAUGAAUGUCACAACUUCTT against Sema6a,inactive: 0.658
13,GCCAUGUCUUCCUUCUCCATT against Sprr2g,inactive: -0.464
14,GGUUCUACAGAUGGUGUCUTT against Tnfrsf23,inactive: -0.94
15,GGUGUUGGAUGGGAUCCCUTT against Rpl13a,inactive: 1.04
16,GGAAGAAAGAAUCAAGCUGTT against Tnfsf14,inactive: -0.17
17,GGCAAGACAUCAGCUAGUATT against Pcdhgc5,inactive: -0.596
18,GGUGGAUCCUGACAUGUUCTT against Dcaf12l1,inactive: -1.55
19,GCGAUUCUUGAUAAAGAGGTT against Hsfy2,inactive: -1.13
20,GGAACAGAAGUCAAGUGGATT against Acsm5,active: 2.69
21,GCUCUAAGCUUCUAGAUCATT against Csf3,inactive: 0.403
22,CGGGAAAGAGAUCAUCCCUTT against Nr1i2,active: -3.3
23,GGAACUCCAGCAACUGCCATT against Prl3a1,inactive: 1.95

# Reprinted at random: 2 records from the list
row,Sequence,z-score
20,GGAACAGAAGUCAAGUGGATT against Acsm5,active: 2.69
15,GGUGUUGGAUGGGAUCCCUTT against Rpl13a,inactive: 1.04

# Following part:

row,Sequence,z-score
1,GGUGAAGAAGAGUCUCAAATT against Mrnip,inactive: 1.6
2,CGCCUUGUAUCUUUUACAUTT against Taf1a,inactive: -0.0637
3,GGACUGAGUCAGAUUUACATT against Foxn2,inactive: -0.622
4,GCUCCUUUGGCCAUAUUAATT against Dnm2,inactive: 0.873
5,GGUUAAAGAAGAUAAUCAGTT against Ift74,inactive: 0.723
6,GGAAAAGCAAAAUCUCCGCTT against Cpne9,inactive: 1.93
7,CGAGCAUUUGAAUCGACUATT against Vti1b,inactive: -0.479
8,GGCUUGUGAAUGGAAAUAATT against Hsp90aa1,inactive: -0.416
9,GCUGUCUACCAAAGUGACGTT against Cdh1,inactive: -0.151
10,GGAGUUCCAUAGCUGUCAATT against Adra1b,inactive: -1.58
11,GAUGAAAGCUACAAUGAAGTT against Srpx2,inactive: 1.67
12,GCCUUCCUAGAGCUCUUUGTT against Olfr792,inactive: -0.403
13,GGAUGAGAAGAAAGAAGAUTT against Srrt,inactive: -1.36
14,GGAAGUGGACCAUUUCUUUTT against Olfr1359,inactive: 0.719
15,GGAAUUUUUAGGAAUGGUGTT against Slc35f2,inactive: -1.38
16,GCGAUGUCAAUCAAUUCUGTT against Gpr37l1,inactive: 0.513
17,AAAAAGGUGUCACCUUUCUTT against Vmn2r43,inactive: 1.32
18,GGAGAUCUUCGAUGACAAUTT against Dvl1,inactive: 0.34
19,CCUGAGAUCAAGAACGACATT against Crat,inactive: 0.899
20,GGUUUCGGAUAAAGCCAAUTT against Wif1,inactive: 0.917
21,GGGACAAUGUACAUCUACUTT against Dnaaf6b,inactive: -0.199
22,CCCUUCUCUGAGACAACACTT against Tcirg1,inactive: 1.42
23,GCAUCCUAGAGGAUCAAUCTT against Smarcb1,inactive: -1.25
